Measured values published in paper doi:10.1101/2023.07.26.549647.

Amino acid sequences for entries named in this document (tags omitted).
UniProt Q15058: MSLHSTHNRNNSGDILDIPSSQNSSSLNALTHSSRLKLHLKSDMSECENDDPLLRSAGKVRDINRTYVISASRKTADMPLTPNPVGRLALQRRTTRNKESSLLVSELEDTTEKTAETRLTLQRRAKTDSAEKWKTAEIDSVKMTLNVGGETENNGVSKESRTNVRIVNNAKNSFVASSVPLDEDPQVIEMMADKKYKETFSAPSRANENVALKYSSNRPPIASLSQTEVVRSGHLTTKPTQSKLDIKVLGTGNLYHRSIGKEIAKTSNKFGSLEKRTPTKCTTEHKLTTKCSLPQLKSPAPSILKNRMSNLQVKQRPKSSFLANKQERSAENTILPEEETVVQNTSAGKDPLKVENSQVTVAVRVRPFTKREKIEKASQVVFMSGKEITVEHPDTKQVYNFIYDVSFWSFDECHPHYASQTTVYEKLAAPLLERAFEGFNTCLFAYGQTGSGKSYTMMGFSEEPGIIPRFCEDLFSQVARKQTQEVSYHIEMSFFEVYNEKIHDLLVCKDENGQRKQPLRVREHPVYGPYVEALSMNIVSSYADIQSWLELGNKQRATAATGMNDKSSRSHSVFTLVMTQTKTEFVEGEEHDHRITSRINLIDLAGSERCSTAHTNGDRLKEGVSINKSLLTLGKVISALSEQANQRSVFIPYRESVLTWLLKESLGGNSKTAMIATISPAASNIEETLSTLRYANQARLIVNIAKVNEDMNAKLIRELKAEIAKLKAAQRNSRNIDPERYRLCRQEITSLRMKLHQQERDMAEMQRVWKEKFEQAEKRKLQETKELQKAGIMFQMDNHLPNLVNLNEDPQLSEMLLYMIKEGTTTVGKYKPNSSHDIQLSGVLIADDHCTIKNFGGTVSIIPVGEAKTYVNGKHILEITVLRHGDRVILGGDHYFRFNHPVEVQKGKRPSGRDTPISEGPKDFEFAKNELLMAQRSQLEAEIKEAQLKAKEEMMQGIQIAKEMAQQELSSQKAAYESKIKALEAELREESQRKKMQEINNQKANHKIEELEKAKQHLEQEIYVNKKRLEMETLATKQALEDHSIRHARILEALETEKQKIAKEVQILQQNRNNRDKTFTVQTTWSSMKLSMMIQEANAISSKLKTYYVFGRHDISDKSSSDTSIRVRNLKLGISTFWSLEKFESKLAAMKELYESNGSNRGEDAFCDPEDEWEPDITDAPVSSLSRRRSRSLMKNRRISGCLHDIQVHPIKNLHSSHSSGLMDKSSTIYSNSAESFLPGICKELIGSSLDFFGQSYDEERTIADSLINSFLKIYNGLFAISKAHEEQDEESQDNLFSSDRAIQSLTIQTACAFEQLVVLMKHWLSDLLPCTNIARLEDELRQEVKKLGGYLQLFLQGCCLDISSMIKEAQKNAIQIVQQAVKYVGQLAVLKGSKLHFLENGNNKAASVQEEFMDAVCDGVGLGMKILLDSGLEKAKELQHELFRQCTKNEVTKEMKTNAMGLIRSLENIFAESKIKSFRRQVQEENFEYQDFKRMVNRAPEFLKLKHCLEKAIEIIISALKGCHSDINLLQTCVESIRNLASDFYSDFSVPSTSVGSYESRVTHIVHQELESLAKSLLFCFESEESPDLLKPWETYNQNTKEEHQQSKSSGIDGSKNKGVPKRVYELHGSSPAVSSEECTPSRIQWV
UniProt Q68CZ1: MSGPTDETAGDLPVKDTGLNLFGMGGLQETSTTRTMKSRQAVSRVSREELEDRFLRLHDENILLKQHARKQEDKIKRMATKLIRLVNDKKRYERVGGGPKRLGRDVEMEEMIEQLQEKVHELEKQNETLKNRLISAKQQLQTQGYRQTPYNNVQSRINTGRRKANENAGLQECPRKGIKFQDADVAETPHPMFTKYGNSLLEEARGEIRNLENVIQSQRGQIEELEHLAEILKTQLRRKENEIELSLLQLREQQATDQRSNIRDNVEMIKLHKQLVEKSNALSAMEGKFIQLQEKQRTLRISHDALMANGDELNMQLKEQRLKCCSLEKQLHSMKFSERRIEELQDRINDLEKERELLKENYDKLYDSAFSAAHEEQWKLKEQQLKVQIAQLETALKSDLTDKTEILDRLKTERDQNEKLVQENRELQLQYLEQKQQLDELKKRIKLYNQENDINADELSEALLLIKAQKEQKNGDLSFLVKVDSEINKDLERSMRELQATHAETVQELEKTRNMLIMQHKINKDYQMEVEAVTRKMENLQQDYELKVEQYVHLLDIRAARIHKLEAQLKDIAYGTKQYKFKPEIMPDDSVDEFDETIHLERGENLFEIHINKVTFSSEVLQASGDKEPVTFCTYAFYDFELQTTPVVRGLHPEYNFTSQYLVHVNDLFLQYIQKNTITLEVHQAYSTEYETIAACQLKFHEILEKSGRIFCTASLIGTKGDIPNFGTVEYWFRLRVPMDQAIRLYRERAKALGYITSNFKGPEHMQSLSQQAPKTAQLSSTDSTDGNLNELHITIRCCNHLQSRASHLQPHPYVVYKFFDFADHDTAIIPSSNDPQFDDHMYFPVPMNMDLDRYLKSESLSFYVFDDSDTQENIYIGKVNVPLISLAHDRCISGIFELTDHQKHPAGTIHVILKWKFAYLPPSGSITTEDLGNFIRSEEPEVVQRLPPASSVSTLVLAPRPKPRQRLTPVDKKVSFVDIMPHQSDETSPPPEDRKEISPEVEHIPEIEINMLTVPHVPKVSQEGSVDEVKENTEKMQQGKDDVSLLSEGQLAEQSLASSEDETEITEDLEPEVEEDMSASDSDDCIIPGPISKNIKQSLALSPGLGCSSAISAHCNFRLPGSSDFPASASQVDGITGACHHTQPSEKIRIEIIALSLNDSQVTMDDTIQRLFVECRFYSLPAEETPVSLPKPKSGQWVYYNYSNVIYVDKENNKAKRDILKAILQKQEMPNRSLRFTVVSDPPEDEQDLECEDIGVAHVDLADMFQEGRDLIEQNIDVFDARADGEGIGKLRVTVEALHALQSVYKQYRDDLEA
UniProt Q4AC94: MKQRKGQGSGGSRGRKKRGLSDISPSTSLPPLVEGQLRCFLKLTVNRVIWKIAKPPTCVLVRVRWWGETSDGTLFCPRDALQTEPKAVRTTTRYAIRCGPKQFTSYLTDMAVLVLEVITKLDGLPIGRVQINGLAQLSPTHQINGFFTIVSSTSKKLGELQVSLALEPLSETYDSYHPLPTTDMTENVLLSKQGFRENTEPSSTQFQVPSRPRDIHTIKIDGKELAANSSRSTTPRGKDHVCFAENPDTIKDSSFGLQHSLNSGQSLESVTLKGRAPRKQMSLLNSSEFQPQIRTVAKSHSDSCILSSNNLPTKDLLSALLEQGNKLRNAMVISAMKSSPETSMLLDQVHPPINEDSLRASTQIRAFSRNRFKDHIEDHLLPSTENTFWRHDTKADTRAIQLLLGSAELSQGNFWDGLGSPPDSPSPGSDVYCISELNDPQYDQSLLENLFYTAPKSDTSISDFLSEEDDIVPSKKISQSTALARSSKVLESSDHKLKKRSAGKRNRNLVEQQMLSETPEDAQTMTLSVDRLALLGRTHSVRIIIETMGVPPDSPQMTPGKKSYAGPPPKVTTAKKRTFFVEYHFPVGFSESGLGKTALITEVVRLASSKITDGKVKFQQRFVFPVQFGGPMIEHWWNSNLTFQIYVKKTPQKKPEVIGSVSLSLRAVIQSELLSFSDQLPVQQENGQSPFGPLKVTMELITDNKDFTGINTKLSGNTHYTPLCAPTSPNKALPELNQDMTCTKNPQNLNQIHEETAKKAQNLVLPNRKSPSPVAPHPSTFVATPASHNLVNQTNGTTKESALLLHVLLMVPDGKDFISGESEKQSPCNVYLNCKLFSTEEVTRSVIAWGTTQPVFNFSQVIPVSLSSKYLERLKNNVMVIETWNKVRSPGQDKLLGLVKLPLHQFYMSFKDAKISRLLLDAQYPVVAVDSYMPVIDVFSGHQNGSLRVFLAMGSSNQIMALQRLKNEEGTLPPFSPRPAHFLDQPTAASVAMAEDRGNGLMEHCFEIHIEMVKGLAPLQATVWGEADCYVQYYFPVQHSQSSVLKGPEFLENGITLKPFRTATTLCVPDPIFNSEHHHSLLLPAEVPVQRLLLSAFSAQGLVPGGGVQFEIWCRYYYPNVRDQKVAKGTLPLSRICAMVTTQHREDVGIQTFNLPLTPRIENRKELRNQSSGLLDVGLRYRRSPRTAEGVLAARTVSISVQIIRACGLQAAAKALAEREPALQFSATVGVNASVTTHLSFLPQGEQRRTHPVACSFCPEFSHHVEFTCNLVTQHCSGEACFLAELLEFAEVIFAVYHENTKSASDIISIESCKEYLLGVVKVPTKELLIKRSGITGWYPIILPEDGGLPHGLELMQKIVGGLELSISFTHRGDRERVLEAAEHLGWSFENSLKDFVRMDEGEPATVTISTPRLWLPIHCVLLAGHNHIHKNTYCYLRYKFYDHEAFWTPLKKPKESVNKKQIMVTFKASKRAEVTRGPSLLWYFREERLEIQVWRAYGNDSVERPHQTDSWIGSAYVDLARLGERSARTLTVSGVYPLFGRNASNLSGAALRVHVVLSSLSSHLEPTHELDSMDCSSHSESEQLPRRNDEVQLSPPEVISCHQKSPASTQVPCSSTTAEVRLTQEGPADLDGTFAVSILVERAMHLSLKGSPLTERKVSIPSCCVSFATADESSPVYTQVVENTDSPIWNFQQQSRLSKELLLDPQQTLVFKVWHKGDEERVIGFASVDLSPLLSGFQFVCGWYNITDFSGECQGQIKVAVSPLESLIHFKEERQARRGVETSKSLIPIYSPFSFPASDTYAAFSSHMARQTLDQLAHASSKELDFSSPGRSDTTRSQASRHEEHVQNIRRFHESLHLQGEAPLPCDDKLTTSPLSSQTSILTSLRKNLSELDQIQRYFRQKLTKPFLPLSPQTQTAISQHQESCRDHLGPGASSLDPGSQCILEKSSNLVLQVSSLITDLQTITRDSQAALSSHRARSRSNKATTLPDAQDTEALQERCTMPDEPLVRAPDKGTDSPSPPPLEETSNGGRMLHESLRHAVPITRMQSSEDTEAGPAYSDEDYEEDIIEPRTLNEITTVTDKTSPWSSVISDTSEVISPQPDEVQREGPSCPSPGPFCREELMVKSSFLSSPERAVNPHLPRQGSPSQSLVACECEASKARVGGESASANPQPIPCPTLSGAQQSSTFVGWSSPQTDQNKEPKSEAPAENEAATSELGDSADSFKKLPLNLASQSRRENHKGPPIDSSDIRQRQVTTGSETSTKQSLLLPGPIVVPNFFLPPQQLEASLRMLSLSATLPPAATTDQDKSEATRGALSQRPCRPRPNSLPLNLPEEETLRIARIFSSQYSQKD
UniProt Q1MSJ5: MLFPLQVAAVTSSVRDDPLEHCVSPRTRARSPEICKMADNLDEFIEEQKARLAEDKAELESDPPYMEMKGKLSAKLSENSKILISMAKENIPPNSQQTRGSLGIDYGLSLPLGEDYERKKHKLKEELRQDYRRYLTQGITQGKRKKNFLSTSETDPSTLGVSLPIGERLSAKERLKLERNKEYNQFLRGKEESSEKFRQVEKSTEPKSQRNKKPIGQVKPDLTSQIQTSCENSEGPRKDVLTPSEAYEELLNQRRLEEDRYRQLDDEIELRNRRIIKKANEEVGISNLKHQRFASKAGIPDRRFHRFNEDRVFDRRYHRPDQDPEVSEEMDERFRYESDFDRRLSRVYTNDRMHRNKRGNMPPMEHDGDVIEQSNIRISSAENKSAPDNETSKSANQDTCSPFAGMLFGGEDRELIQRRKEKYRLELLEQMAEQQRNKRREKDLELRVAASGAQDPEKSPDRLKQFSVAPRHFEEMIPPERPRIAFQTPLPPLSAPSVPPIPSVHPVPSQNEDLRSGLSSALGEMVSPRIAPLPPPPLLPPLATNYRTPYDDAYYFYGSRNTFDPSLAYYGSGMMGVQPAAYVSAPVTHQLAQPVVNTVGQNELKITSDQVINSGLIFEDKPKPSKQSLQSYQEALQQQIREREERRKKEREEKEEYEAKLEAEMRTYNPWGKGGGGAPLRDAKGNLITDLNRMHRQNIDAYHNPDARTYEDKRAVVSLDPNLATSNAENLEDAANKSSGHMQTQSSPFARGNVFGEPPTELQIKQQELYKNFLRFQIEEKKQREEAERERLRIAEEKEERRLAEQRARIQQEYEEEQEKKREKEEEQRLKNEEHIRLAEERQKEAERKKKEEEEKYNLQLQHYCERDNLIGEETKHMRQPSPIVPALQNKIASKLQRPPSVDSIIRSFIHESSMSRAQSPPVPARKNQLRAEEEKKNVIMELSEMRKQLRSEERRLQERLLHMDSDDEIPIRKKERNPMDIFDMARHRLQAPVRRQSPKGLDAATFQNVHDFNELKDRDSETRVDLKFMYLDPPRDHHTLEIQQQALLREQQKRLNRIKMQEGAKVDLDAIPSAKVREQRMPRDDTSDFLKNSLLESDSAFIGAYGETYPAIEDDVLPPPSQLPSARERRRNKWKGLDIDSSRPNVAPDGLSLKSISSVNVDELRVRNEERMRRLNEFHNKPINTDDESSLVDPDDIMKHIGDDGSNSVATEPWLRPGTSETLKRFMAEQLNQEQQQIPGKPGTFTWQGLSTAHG

T1: FLAG-BirA*-TBCCD1 (human TBCC domain-containing protein 1) (human) (UniProt Q9NVR7)
T1 sequence: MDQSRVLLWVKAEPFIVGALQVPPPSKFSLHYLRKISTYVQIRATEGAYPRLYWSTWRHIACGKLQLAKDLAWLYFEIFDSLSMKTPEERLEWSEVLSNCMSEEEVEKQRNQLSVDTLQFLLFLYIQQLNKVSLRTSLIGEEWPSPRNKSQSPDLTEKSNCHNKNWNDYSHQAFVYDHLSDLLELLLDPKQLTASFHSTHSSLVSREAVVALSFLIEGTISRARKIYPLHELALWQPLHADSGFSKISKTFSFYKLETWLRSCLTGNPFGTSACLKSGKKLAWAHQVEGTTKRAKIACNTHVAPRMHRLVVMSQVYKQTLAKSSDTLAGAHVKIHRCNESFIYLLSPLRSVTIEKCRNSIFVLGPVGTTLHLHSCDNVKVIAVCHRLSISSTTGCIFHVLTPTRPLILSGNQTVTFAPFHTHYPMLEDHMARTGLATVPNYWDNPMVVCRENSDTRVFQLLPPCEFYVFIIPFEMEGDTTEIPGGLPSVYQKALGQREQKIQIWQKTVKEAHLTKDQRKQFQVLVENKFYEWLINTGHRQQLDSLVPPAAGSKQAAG

B1: Centrobin (CNTROB) (protein, UniProt Q8N137 1-903)
chain: MATSADSPSSPLGAEDLLSDSSEPPGLNQVSSEVTSQLYASLRLSRQAEATARAQLYLPSTSPPHEGLDGFAQELSRSLSVGLEKNLKKKDGSKHIFEMESVRGQLQTMLQTSRDTAYRDPLIPGAGSERREEDSFDSDSTATLLNTRPLQDLSPSSSAQALEELFPRYTSLRPGPPLNPPDFQGLRDALDSEHTRRKHCERHIQSLQTRVLELQQQLAVAVAADRKKDTMIEQLDKTLARVVEGWNRHEAERTEVLRGLQEEHQAAELTRSKQQETVTRLEQSLSEAMEALNREQESARLQQRERETLEEERQALTLRLEAEQQRCCVLQEERDAARAGQLSEHRELETLRAALEEERQTWAQQEHQLKEHYQALQEESQAQLEREKEKSQREAQAAWETQHQLALVQSEVRRLEGELDTARRERDALQLEMSLVQARYESQRIQLESELAVQLEQRVTERLAQAQESSLRQAASLREHHRKQLQDLSGQHQQELASQLAQFKVEMAEREERQQQVAEDYELRLAREQARVCELQSGNQQLEEQRVELVERLQAMLQAHWDEANQLLSTTLPPPNPPAPPAGPSSPGPQEPEKEERRVWTMPPMAVALKPVLQQSREARDELPGAPPVLCSSSSDLSLLLGPSFQSQHSFQPLEPKPDLTSSTAGAFSALGAFHPDHRAERPFPEEDPGPDGEGLLKQGLPPAQLEGLKNFLHQLLETVPQNNENPSVDLLPPKSGPLTVPSWEEAPQVPRIPPPVHKTKVPLAMASSLFRVPEPPSSHSQGSGPSSGSPERGGDGLTFPRQLMEVSQLLRLYQARGWGALPAEDLLLYLKRLEHSGTDGRGDNVPRRNTDSRLGEIPRKEIPSQAVPRRLATAPKTEKPPARKKSGHPAPSSMRSRGGVWR
B2: OFD1 (protein, UniProt O75665 1-1012)
chain: MMAQSNMFTVADVLSQDELRKKLYQTFKDRGILDTLKTQLRNQLIHELMHPVLSGELQPRSISVEGSSLLIGASNSLVADHLQRCGYEYSLSVFFPESGLAKEKVFTMQDLLQLIKINPTSSLYKSLVSGSDKENQKGFLMHFLKELAEYHQAKESCNMETQTSSTFNRDSLAEKLQLIDDQFADAYPQRIKFESLEIKLNEYKREIEEQLRAEMCQKLKFFKDTEIAKIKMEAKKKYEKELTMFQNDFEKACQAKSEALVLREKSTLERIHKHQEIETKEIYAQRQLLLKDMDLLRGREAELKQRVEAFELNQKLQEEKHKSITEALRRQEQNIKSFEETYDRKLKNELLKYQLELKDDYIIRTNRLIEDERKNKEKAVHLQEELIAINSKKEELNQSVNRVKELELELESVKAQSLAITKQNHMLNEKVKEMSDYSLLKEEKLELLAQNKLLKQQLEESRNENLRLLNRLAQPAPELAVFQKELRKAEKAIVVEHEEFESCRQALHKQLQDEIEHSAQLKAQILGYKASVKSLTTQVADLKLQLKQTQTALENEVYCNPKQSVIDRSVNGLINGNVVPCNGEISGDFLNNPFKQENVLARMVASRITNYPTAWVEGSSPDSDLEFVANTKARVKELQQEAERLEKAFRSYHRRVIKNSAKSPLAAKSPPSLHLLEAFKNITSSSPERHIFGEDRVVSEQPQVGTLEERNDVVEALTGSAASRLRGGTSSRRLSSTPLPKAKRSLESEMYLEGLGRSHIASPSPCPDRMPLPSPTESRHSLSIPPVSSPPEQKVGLYRRQTELQDKSEFSDVDKLAFKDNEEFESSFESAGNMPRQLEMGGLSPAGDMSHVDAAAAAVPLSYQHPSVDQKQIEEQKEEEKIREQQVKERRQREERRQSNLQEVLERERRELEKLYQERKMIEESLKIKIKKELEMENELEMSNQEIKDKSAHSENPLEKYMKIIQQEQDQESADKSSKKMVQEGSLVDTLQSSDKVESLTGFSHEELDDSW
B3: MED4 (protein, UniProt Q9NPJ6 1-270)
chain: MAASSSGEKEKERLGGGLGVAGGNSTRERLLSALEDLEVLSRELIEMLAISRNQKLLQAGEENQVLELLIHRDGEFQELMKLALNQGKIHHEMQVLEKEVEKRDSDIQQLQKQLKEAEQILATAVYQAKEKLKSIEKARKGAISSEEIIKYAHRISASNAVCAPLTWVPGDPRRPYPTDLEMRSGLLGQMNNPSTNGVNGHLPGDALAAGRLPDVLAPQYPWQSNDMSMNMLPPNHSSDFLLEPPGHNKENEDDVEIMSTDSSSSSSESD
B4: SSX2IP (protein, UniProt Q9Y2D8 1-614)
chain: MGDWMTVTDPGLSSESKTISQYTSETKMSPSSLYSQQVLCSSIPLSKNVHSFFSAFCTEDNIEQSISYLDQELTTFGFPSLYEESKGKETKRELNIVAVLNCMNELLVLQRKNLLAQENVETQNLKLGSDMDHLQSCYSKLKEQLETSRREMIGLQERDRQLQCKNRNLHQLLKNEKDEVQKLQNIIASRATQYNHDMKRKEREYNKLKERLHQLVMNKKDKKIAMDILNYVGRADGKRGSWRTGKTEARNEDEMYKILLNDYEYRQKQILMENAELKKVLQQMKKEMISLLSPQKKKPRERVDDSTGTVISDVEEDAGELSRESMWDLSCETVREQLTNSIRKQWRILKSHVEKLDNQVSKVHLEGFNDEDVISRQDHEQETEKLELEIQQCKEMIKTQQQLLQQQLATAYDDDTTSLLRDCYLLEEKERLKEEWSLFKEQKKNFERERRSFTEAAIRLGLERKAFEEERASWLKQQFLNMTTFDHQNSENVKLFSAFSGSSDWDNLIVHSRQPQKKPHSVSNGSPVCMSKLTKSLPASPSTSDFCQTRSCISEHSSINVLNITAEEIKPNQVGGECTNQKWSVASRPGSQEGCYSGCSLSYTNSHVEKDDLP

Molecular target: T1, FLAG-BirA*-TBCCD1 (human TBCC domain-containing protein 1) (human)
Assay: proximity labelling

| binding | Molecule |
| --- | --- |
| binds | B1 |
| binds | B2 |
| binds | B3 |
| binds | B4 |

Molecular target: T1, FLAG-BirA*-TBCCD1 (human TBCC domain-containing protein 1) (human)
Assay: proximity labelling
Remark: another data set of the same source

| binding | Molecule |
| --- | --- |
| binds | KIF14 (from UniProt Q15058 1-1648) |
| binds | CEP152 (from UniProt O94986 1-1710) |
| binds | PCM1 (from UniProt Q15154 1-2024) |
| binds | GEMIN4 (from UniProt P57678 1-1058) |
| binds | RPGRIP1L (from UniProt Q68CZ1 1-1315) |
| binds | C2CD3 (from UniProt Q4AC94 1-2353) |
| binds | CSPP1 (from UniProt Q1MSJ5 1-1256) |

No constants are given. Whether binding was seen depends on the method and setting. Binding seen in cells or lysates may run through a third protein. These calls come from enrichment with a bait or labelling near it, and not all partners need be listed. Where a sequence is shown, tags or fusion partners need not be part of it.
